Our source for the log2 fold change values is the supplement of paper PMC10849652.

By UniProt entry, the sequences of proteins in these tests, tags left out. Where a name states a change or a piece, a line headed by the entry shows the natural chain unless it says otherwise.
UniProt Q9NR28: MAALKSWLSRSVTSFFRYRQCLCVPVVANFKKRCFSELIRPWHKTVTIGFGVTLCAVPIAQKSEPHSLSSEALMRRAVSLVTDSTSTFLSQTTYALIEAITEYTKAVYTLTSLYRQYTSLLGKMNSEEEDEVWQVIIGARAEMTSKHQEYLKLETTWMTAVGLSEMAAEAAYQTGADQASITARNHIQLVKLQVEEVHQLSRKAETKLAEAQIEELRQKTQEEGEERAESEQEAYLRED
UniProt Q7Z478: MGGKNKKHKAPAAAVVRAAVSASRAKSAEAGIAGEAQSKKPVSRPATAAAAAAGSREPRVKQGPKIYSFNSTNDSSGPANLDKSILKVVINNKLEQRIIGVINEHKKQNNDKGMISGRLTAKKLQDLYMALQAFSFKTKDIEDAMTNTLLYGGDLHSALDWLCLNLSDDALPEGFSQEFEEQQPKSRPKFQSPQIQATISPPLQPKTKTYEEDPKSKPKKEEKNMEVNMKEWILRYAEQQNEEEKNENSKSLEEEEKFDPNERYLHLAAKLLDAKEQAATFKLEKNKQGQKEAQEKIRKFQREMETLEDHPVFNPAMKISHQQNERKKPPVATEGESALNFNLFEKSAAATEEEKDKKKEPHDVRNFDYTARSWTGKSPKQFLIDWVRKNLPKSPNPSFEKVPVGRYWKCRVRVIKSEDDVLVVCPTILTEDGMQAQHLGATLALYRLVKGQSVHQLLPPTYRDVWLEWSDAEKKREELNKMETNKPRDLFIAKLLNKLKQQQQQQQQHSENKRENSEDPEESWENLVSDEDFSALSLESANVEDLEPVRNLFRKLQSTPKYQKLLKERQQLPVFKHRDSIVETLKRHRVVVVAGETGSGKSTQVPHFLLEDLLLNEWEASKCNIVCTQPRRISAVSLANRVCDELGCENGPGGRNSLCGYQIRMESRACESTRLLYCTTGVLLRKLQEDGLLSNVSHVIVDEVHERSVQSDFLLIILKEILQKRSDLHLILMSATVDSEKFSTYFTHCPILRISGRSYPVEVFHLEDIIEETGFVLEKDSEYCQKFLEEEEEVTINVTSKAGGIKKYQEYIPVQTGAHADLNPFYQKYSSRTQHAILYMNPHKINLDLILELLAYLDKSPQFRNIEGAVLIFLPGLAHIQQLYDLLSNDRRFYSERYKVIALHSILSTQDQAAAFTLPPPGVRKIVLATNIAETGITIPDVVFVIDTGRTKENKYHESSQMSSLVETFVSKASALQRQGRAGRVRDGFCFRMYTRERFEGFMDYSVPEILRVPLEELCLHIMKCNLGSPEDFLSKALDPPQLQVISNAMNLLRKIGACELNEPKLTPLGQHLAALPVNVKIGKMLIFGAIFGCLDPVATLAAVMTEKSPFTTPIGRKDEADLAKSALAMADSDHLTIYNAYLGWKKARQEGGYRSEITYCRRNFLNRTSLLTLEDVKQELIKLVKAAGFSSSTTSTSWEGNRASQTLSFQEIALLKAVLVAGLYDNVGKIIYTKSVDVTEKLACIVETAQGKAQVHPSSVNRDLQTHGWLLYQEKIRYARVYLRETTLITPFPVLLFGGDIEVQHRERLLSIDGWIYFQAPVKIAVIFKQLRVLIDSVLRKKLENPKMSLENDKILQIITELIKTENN
UniProt Q99766: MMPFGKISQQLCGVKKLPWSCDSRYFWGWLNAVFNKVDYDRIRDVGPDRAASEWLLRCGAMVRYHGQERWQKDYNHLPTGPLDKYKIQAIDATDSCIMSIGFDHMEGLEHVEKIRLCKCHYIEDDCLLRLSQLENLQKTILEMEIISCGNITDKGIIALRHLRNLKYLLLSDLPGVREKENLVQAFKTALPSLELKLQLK
UniProt P0CG22: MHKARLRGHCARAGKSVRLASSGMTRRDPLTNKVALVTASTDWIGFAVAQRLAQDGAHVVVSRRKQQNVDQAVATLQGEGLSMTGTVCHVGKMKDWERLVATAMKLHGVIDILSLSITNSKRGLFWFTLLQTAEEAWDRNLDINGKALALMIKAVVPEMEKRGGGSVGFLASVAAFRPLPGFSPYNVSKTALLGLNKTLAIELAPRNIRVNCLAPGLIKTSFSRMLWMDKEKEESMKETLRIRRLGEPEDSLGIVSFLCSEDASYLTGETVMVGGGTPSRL
UniProt Q6E0U4: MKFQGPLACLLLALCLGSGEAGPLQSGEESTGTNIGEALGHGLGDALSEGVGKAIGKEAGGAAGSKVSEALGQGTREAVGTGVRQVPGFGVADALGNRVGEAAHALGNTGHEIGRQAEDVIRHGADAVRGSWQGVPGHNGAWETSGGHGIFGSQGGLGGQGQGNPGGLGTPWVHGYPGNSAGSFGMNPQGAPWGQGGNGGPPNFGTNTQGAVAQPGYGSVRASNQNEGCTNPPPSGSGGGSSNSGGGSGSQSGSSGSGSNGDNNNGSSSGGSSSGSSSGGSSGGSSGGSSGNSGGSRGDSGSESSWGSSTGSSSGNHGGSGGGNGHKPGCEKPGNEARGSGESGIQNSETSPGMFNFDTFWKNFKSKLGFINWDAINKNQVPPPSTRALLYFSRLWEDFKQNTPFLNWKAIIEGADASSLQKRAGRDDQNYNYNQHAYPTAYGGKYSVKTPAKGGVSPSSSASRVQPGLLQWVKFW
UniProt Q9BUQ8: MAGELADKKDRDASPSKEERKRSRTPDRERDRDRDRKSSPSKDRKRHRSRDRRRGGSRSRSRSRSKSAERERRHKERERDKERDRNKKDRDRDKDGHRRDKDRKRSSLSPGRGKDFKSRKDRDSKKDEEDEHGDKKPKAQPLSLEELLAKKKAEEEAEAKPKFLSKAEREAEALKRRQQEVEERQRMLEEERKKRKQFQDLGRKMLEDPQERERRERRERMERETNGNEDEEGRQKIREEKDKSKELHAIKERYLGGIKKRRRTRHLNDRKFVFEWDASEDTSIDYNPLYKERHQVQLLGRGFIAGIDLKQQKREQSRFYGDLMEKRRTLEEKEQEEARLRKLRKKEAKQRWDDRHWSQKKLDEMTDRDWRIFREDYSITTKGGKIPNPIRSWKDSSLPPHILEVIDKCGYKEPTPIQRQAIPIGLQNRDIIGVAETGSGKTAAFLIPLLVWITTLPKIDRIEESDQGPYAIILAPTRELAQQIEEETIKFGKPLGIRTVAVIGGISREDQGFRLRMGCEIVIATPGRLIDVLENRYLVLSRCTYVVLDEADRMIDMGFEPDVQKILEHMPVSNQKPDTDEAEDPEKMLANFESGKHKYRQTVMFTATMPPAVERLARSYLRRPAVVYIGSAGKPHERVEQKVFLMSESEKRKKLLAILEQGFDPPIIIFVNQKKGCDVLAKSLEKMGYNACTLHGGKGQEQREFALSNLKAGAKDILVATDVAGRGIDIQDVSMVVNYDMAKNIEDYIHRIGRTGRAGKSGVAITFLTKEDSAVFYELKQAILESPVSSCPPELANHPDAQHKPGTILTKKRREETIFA
UniProt P10515, whole entry, looked up: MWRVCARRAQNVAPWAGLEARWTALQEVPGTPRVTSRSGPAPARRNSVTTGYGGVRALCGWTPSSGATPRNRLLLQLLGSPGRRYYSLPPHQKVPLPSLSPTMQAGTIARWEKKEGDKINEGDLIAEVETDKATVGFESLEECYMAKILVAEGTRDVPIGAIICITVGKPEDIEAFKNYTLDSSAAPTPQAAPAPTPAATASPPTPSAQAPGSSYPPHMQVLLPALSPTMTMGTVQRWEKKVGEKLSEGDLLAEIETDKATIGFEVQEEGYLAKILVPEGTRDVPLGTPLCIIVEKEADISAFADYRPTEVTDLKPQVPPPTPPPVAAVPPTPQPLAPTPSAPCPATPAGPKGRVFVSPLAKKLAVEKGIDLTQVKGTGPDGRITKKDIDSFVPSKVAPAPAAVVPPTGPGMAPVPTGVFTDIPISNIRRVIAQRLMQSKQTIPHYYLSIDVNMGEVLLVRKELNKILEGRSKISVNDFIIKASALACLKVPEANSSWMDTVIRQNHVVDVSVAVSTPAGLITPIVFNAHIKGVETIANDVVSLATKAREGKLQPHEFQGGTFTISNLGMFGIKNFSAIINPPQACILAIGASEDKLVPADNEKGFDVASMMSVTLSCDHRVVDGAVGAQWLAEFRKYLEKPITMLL
UniProt Q9BUN8: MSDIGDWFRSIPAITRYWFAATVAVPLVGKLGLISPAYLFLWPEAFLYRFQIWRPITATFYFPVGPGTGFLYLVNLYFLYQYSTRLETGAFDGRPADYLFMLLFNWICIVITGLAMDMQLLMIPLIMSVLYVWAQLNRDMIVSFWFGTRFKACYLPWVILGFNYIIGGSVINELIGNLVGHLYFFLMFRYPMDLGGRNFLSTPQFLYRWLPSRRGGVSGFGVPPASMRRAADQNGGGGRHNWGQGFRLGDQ
UniProt Q9NY93: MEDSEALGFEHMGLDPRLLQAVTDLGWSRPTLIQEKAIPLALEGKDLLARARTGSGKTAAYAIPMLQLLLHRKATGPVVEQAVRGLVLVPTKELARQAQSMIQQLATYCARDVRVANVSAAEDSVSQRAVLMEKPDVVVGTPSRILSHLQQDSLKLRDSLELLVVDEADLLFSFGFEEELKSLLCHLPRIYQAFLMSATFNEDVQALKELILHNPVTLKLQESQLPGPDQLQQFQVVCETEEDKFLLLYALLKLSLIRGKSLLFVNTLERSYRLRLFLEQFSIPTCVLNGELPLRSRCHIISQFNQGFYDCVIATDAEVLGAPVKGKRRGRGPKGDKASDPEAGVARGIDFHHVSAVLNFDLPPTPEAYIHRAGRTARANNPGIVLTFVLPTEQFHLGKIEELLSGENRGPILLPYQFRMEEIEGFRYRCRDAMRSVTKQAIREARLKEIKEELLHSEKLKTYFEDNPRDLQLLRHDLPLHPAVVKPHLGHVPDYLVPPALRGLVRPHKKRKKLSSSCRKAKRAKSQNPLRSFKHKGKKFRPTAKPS
UniProt Q9Y2H0: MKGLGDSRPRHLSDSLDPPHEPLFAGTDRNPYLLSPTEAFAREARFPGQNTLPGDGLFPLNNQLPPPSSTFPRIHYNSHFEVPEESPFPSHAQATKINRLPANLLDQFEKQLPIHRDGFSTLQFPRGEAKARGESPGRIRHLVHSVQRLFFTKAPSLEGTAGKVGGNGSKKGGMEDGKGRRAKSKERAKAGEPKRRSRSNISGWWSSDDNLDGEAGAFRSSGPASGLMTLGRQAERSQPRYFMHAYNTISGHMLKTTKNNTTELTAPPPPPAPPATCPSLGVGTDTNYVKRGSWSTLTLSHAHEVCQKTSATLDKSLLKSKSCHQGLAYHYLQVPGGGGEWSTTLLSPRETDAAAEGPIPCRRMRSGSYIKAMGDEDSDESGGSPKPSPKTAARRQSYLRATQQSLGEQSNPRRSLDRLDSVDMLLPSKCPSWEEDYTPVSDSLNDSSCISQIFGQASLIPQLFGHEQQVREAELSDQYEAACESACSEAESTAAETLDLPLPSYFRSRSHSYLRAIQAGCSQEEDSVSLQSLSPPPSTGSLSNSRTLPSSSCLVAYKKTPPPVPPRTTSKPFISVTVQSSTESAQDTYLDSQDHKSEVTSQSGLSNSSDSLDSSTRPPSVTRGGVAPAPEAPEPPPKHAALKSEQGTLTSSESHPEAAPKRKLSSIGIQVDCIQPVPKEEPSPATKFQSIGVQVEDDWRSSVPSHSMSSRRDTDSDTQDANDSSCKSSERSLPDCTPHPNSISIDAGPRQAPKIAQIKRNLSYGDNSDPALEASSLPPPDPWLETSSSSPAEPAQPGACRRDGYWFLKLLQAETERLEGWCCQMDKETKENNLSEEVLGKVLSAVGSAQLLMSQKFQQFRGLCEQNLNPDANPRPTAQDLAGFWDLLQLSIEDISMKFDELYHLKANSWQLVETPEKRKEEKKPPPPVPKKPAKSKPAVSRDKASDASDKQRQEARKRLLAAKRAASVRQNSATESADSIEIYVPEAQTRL
UniProt P17661, whole entry, looked up: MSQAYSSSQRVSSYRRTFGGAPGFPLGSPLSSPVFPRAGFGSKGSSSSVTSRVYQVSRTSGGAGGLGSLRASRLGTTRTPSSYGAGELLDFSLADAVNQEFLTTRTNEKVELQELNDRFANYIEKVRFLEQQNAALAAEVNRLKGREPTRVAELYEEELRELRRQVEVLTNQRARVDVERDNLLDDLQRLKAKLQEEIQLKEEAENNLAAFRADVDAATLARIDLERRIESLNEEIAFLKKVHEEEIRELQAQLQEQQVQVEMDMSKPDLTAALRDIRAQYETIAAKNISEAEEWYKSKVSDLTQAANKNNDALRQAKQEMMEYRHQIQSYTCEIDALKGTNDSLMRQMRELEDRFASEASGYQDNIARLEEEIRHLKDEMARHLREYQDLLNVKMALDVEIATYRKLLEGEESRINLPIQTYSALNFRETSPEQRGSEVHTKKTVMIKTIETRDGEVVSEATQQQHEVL
UniProt Q13268: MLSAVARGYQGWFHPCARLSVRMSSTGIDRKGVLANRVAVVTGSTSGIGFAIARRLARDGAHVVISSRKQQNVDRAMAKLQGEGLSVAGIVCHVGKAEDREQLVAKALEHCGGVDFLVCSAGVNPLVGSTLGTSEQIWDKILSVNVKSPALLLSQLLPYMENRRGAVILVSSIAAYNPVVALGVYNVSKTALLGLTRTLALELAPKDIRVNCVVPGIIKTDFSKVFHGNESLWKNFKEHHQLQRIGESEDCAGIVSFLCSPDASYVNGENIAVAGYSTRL

The list shows a part of the results.

Compound in the experiment: c1cn2cc(-c3ccc4cn[nH]c4c3)nc(Nc3ccc(N4CCOCC4)cc3)c2n1 [entospletinib]
In words: log2 fold change, soluble protein after heating vs DMSO (PISA); higher = thermal stabilisation; K562 cells, 10 uM, 30 min; active = over 0.2 and 3.5 SD of the protein, either way, in both replicates (recomputed). The method in brief: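 Thermal stability values are relative to control samples and come from duplicates. They are expressed as log2 fold changes. For measurement, K562 cells (2×10^6 cells/mL) received 10 μM compound for 30 min, and aliquots were heated for 3 min over 48°C-58°C, pooled, and extracted at 4°C in PBS with 0.5% NP-40. Soluble protein, the supernatant after 21,000xg for 90 min, was quantified by TMTpro 16plex LC-MS/MS with equalised channel sums.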
As to DENR (UniProt O43583), the log2 fold change was inactive: 0.023. The same measure for DIMT1 (UniProt Q9UNQ2): inactive: 0.048; for DDHD2 (UniProt O94830): inactive: -0.016. The same measure for DIABLO (UniProt Q9NR28): inactive: -0.018. The same measure for DHX29 (UniProt Q7Z478): inactive: 0.018; for DDA1 (UniProt Q9BW61): inactive: 0.007; for DLG1 isoform 2 (UniProt Q12959): inactive: -0.073. With DNAJA1 (UniProt P31689), the log2 fold change is inactive: -0.031.

Regarding DMAC2L (UniProt Q99766), the log2 fold change was inactive: -0.021.

In the case of DHX34 (UniProt Q14147), the log2 fold change is inactive: 0.049. The same measure for DHTKD1 (UniProt Q96HY7): inactive: -0.046. The result for DHRS7 (UniProt Q9Y394) reads inactive: 0.031.

On to DDX21 (UniProt Q9NR30), for which the log2 fold change was inactive: 0.033. The result for DFFA (UniProt O00273) reads inactive: -0.035; that for DHRS4L1 (UniProt P0CG22), inactive: 0.088. The same measure for DMKN (UniProt Q6E0U4): inactive: -0.132.

Turning to DNAH8 (UniProt Q96JB1), the log2 fold change was inactive: 0.185. Take DECR2 (UniProt Q9NUI1): the log2 fold change was inactive: 0.223.

Turning to DDX23 (UniProt Q9BUQ8), the log2 fold change was inactive: 0.235. The same measure for DLAT (UniProt P10515): inactive: 0.071; for DDX59 (UniProt Q5T1V6): inactive: 0; for DERL1 (UniProt Q9BUN8): inactive: 0.042. The result for DDX56 (UniProt Q9NY93) reads inactive: 0.116; that for DNAAF5 (UniProt Q86Y56), inactive: 0.179; that for DLGAP4 (UniProt Q9Y2H0), inactive: 0.023. The same measure for DHRS11 (UniProt Q6UWP2): inactive: -0.016; for DES (UniProt P17661): inactive: 0.044; for DDX42 (UniProt Q86XP3): inactive: -0.016. As for DHRS2 (UniProt Q13268), the log2 fold change was inactive: -0.029.

For the target DENND4A isoform 2 (UniProt Q7Z401), the log2 fold change is inactive: 0.088.
